Laboratory results: PubChem BioAssay AID1259405 (NCATS, 2018)
Purpose: 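Silenced genes that increase secreted GFP made by CHO cells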 (primary screen). Cells: Chinese hamster CHO-K1 ovary cells with stable secreted eGFP expression. Reagents: single siRNA against mouse genes, 0.8 pmol siRNA per well (2 µl of 400 nM stock). Timing: 3 days. Measured: 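Percent of the per-plate non-targeting control median for intracellular GFP per well by laser scanning cytometry and for cell viability by ATP luminescence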. Direction: GFP, % of control: higher = more GFP per well, higher productivity. Rule for the call: 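a knock-down is called active if GFP reaches 120% or more of non-targeting control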.
Here is a random part of about 50,000 deposited reagents. Of all reagents, about 4,000 (8%) are marked active. 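Mouse siRNA library applied to hamster cells; one well for each siRNA.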 Not all columns of the deposit are shown. Reagent sequences are not shown.

GFP, % of control, by gene knocked down and reagent
Ankrd61: SID363542523 41.6 inactive; SID363552014 61.1 inactive; SID363559619 124 active
Or3a4: SID363544642 106 inactive; SID363550970 93.3 inactive; SID363557519 40.1 inactive
Kcnh7: SID363574843 101 inactive; SID363575899 99.9 inactive; SID363580475 85 inactive
Xxylt1: SID363546756 88.9 inactive; SID363548512 151 active; SID363560690 53.3 inactive
Tcl1b3: SID363556398 60.1 inactive; SID363586848 96.4 inactive; SID363588956 133 active
Ear14: SID363545698 55 inactive; SID363549211 85.6 inactive; SID363563017 35.2 inactive
Col10a1: SID363582472 81.7 inactive; SID363584232 113 inactive
Ptdss1: SID363570695 53.5 inactive; SID363579495 62.8 inactive; SID363583367 76.1 inactive
Snrpa1: SID363569016 141 active; SID363583448 86.4 inactive
Txnip: SID363556738 73.3 inactive; SID363563642 92.2 inactive; SID363587188 96 inactive
Or5p63: SID363544536 99.4 inactive; SID363550864 66.4 inactive; SID363557413 59.4 inactive
Zfp317: SID363572122 60.5 inactive; SID363573882 112 inactive
Dut: SID363547616 62.5 inactive; SID363558385 49.9 inactive; SID363560143 74.1 inactive
Zc3h12d: SID363539726 53.9 inactive; SID363561027 88.5 inactive; SID363565117 91.9 inactive
Vsnl1: SID363582461 151 active; SID363584221 97.1 inactive; SID363589756 151 active; SID363589774 84.1 inactive; SID363589775 79.7 inactive
Josd1: SID363540608 99.7 inactive; SID363543059 42.3 inactive; SID363552552 76 inactive
Yipf6: SID363542819 90.1 inactive; SID363546336 73.2 inactive; SID363548092 80.1 inactive
Tulp3: SID363556351 54.2 inactive; SID363586801 80.5 inactive; SID363588909 74.7 inactive
Atg10: SID363546737 34 inactive; SID363548493 71.9 inactive; SID363560671 75.4 inactive
A130010J15Rik: SID363542911 61.9 inactive; SID363546428 64.5 inactive; SID363548184 80.8 inactive
